The values are deposited in ChEMBL (CHEMBL3988442, “University of Dundee, Small-Polar-MMV Screening Library” (2021)).

A: 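Whole-cell assay for inhibitors of Mycobacterium tuberculosis growth, labelled Cornell in the record; the read-out is not stated. The concentration is filed as 10 mM, unlikely as a test dose, so the dose is not known. Higher means stronger inhibition (inferred from two other growth screens of the library). About 53,000 compounds were tested under these conditions; 1.7% (about 900) showed 50% or more at least once.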
B: 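Assay on Mycobacterium tuberculosis, filed only as a heat shock assay from Cornell; the read-out is not stated. The concentration is filed as 10 mM, unlikely as a test dose, so the dose is not known. Higher reads as stronger inhibition (inferred: compounds with an IC50 in retests scored well above the rest). Size under these conditions: about 69,000 compounds, about 930 of them at 50% or above in at least one test.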

The filed quantity is “Percent Effect” (%). How 0% and 100% were set is not recorded. Most values in the screen are low, and negative values occur. Compounds were drawn at random from those tested, without regard to their results. A dash means the value is not listed here; it may have been measured.

Compound	A	B
CCc1nnc(S(=O)(=O)Cc2cc(Cl)c3c(c2)OCO3)n1C	2.534	-3.419
O=c1n(CC2COCCO2)nc(CC2CCNCC2)n1-c1ccccc1 (stereo not shown)	2.148	18.47
c1cc(C2CCN(c3cnccn3)CC2)ccn1	-16.16	-27.36
CC(C)OCCOCc1cccc(NC(=O)NCc2ccccn2)c1	31.64	-15.32
[H][C@@]12CCN(Cc3scnc3C)C[C@]1([H])OCCN(c1ccccc1)C2=O	-	-4.701
CC(Cn1cccn1)NC(=O)N1CCCN(Cc2cccs2)CC1 (stereo not shown)	-	-20.16
Cn1c(C2CC2)nc2c1CCN(CCOc1ccccc1C#N)C2	-	-14.25
CSCC(=O)N[C@H]1CC[C@H](Nc2nccc(-c3ccncc3)n2)C1	-26.87	-22.72
O=C(O)C(F)(F)F.[H][C@]12CCC[C@@]1(COc1cccnc1)CN(C(=O)C1CCOCC1)C2	6.093	20.67
Cc1ccccc1C(=O)Nc1ccc([C@H]2OCC(=O)N(C)[C@@H]2CO)cc1	14.74	-2.731
CN(C)CCOCc1nnc2n1CCN(Cc1ccco1)C2.O=C(O)C(F)(F)F.O=C(O)C(F)(F)F	-42.84	2.322
COc1ccc(-c2n[nH]cc2CNC2CCN(C3CC3)CC2)cc1.Cl	-	-33.63
Cc1nc[nH]c1-c1c(-c2ccccc2)ncn1C1CCNC1 (stereo not shown)	-28.29	9.039
CCn1cnc(NC(=O)NCC2CCS(=O)(=O)CC2)n1	3.634	4.395
CNC(=O)N1CCc2nc(C(=O)NCc3cccc(OC)c3)sc2CC1	-3.356	-9.195
[H][C@@]12CCN[C@]1([H])CN(S(=O)(=O)c1ccccc1)C2	-	-3.441
CCOCCCNCc1cc2c(C)cc(C)cc2n2c(=O)n(C)nc12	-11.39	-7.096
Cc1oc(C(=O)O)cc1S(=O)(=O)Nc1cccc(Cl)c1F	-0.2574	-10.78
O=C(NCC1CCCO1)N1CCN(Cc2ccc3c(c2)CCO3)CC1 (stereo not shown)	-39.17	-29
Cc1cc(C)c2c(c1)C(NC(=O)CSCC(N)=O)CCO2 (stereo not shown)	-	-16.81
O=C(c1ccoc1)N1CCC(NCc2ccccc2-n2ccnc2)CC1	-21.34	-5.243
CCc1nc(C2CCCN2C(=O)CCCOc2cccc(F)c2)no1 (stereo not shown)	-	-25.96
CN1CCCCCC1C(=O)N1CCN(c2ccccc2C#N)CC1 (stereo not shown)	8.167	-25.05
O=C(Nc1cnc2n1CCCC2)c1cccc(OCC(F)(F)F)c1	3.331	6.473
CCn1nc(C)c2nc(C(C)C)nc(NCC(=O)N3CCOCC3)c21	-	9.777
CCNC(=O)C(C)(C)NC(=O)NCc1cccc(Br)c1	-9.312	-2.449
CCOCc1nnc(NCc2ccsc2)o1	2.42	31.97
COC(=O)c1sc2cccc(F)c2c1CNC(=O)C1CCOC1 (stereo not shown)	-	2.301
Cn1ccnc1CN1CCC2(CC1)CN(c1ccccn1)CCO2.O=C(O)C(F)(F)F.O=C(O)C(F)(F)F	-10.52	-52.81
NC(=O)c1cc(NC(=O)N2CCCCCC2)ccc1F	-18.39	-21.16
Cc1ccc(-c2nc(C(=O)N(C)CC(=O)N(C)C)cs2)c(C)c1	-1.2	-5.878
Cc1ccc(C(C)N(C)Cc2nc3c(cnn3C)c(=O)[nH]2)cc1 (stereo not shown)	23.84	36.86
Cc1cc(-c2cccc(-c3ccn(CCCO)n3)c2)nc(N(C)C)n1	9.702	-31.3
CCN1CCN(C(=O)c2cnc(Cc3c(Cl)cccc3Cl)nc2O)CC1	32.17	-6.397
CC(C)CN1CCCn2nc(CNC(=O)CCN)cc2C1	-18.53	13.53
Br.Cc1c(NC(=O)CN2CCN(C3CCCC3)C(=O)C2)cnn1C	41.65	-11.86
O=C(O)C(F)(F)F.[H][C@@]12CCCO[C@]1([H])[C@@H](NC(=O)c1cnn(C)c1)CN2Cc1nccs1	3.41	-39.35
CC(C)c1cc2c(O)nc(CSCC(=O)NCc3ccncc3)nc2s1	-20.22	-4.214
CN(C)C(CNC(=O)c1nc(N2CCOCC2)ncc1Cl)c1ccco1 (stereo not shown)	-0.8677	31.97
CC(=O)NC(C)C(=O)NCc1ccc(N2CCNC(=O)C2)cc1 (stereo not shown)	-51.9	2.097
O=C(O)c1ccccc1-c1cnc(CNC(=O)C2CCOCC2)nc1	-26.12	-13.92
O=C(CCc1ccsc1)NCC1CCN(C2CC2)C1 (stereo not shown)	-7.491	-16.29
O=C(O)C1CCN(C[C@H]2CC[C@@H](Cc3ccc4c(c3)OCO4)O2)CC1	9.263	-13.64
CCc1nnsc1C(=O)NC(CC(C)C)C(=O)OC (stereo not shown)	-	-3.056
CCN(CC1CCCO1)C(=O)Nc1cc(OC)c(OC)cc1C (stereo not shown)	69.91	14.35
O=C(NCC1CCCCC1)NC1CCCc2c1cnn2CCO (stereo not shown)	-44.24	-30.64
[H][C@@]12CNCC[C@]1(O)CCN(c1nccc3ccccc13)C2	-	-21.03
CC(C)S(=O)(=O)C(C)C(=O)Nc1ccc2oc(C3CC3)nc2c1 (stereo not shown)	6.575	-8.27
C[C@@H](CO)NC(=O)c1ccc2nc(NS(C)(=O)=O)sc2c1	13.54	-1.265
Cc1[nH]ncc1C(=O)N1CCCN(Cc2nccn2C(C)C)CC1	-	5.99
Cc1nc(N)nc(C)c1CC(=O)N1CCCN(CC2CC2)C(C(C)C)C1 (stereo not shown)	-9.398	-3.984
Br.COc1ccc(C(=O)CN(C2=NCCCCC2)c2ccccc2)cc1	15.77	22.41
CCCn1nc(C)c(C(=O)N[C@@H]2CC[C@@H](N3CCCC3)[C@@H]2O)c1C	3.28	4.156
CCn1nc(C)c(NC(=O)c2cc(NC(=O)C3CC3)n(C)n2)c1C	-	-24.03
CCCOc1ccccc1CCCNc1ncnc2oc(C)nc12	30.24	6.744
Cc1cc(C(=O)O)cc(S(=O)(=O)Nc2ccc3c(c2)OCCCO3)c1C	-	15.05
COCC(O)CN1CCC(NC(=O)c2cscc2C)CC1 (stereo not shown)	8.088	4.043
Cn1cc(N2CCCC(Oc3ccc(F)cc3Cl)C2=O)cn1 (stereo not shown)	22.63	8.372
Cc1ccc(S(=O)(=O)N(C)Cc2nccs2)cc1N(C)C	-28.97	-24.45
N#Cc1cccc(OCCN2CCC(C(=O)N3CCOCC3)CC2)c1	16.74	0.3606
COc1cc(-c2nc(CN(CCO)CCO)c(C)o2)ccc1F	1.017	-14.13
COCCN1CCN(Cc2ccncc2)c2ncccc2C1.O=C(O)C(F)(F)F.O=C(O)C(F)(F)F.O=C(O)C(F)(F)F	14.56	1.546
COc1ccc(CCN2CCC(N3CCN(C)C3=O)CC2)cc1	13.97	-16.46
Nc1nnc(Cn2nnc(-c3ccccc3F)n2)s1	-	12.46
FC(F)(F)C1CCCn2c(CNCc3cccs3)nnc21 (stereo not shown)	21.49	0.9097
Cn1ccnc1CN1CCC2(CC1)CC(Nc1ccccn1)CO2 (stereo not shown)	-15.24	12.98
CCn1cnnc1C1CCN(C(=O)c2cnc3ccccc3n2)CC1	-2.901	1.903
CN(C)c1cncc(C2CCN(CC3(O)CCCCC3)CC2)n1	-35.84	-13.17
Cc1nc(CN2CCC(c3nc4ccccc4n3C)CC2)co1	-7.219	0.5237
O=C(c1cnn[nH]1)N1CCCC1c1nc2cc(F)ccc2[nH]1 (stereo not shown)	0.6669	2.105
O=C(CO)N1CCc2onc(Cn3cccn3)c2C1	15.86	5.573
c1cnc(Nc2cncc(C3CCCN(c4cnccn4)C3)n2)nc1 (stereo not shown)	8.046	-21.7
O=C(O)C(F)(F)F.[H][C@@]12CCN(c3ccc(C)nn3)[C@]1([H])CC[C@H](C(=O)N1CCCO1)O2	-16.53	45.87
COc1cccc2cc(CNCc3ccnc(N(C)C)c3)oc12	6.727	-5.737
Cc1ccc2c(c1)SCC(=O)N2CC(=O)N1CCC[C@H]1c1nc(C)no1	4.994	15.61
COc1ccc(C2CCCN2C(=O)NCCCn2ccnc2)cc1 (stereo not shown)	-	-5.906
COc1ccc(C(=O)NCCCNc2ccc(C(F)(F)F)cn2)cc1	-	25.08
NCCCn1nc(C(F)(F)F)c2c1CCC2	-8.927	-4.639
CC(C)(C)n1ncc2c1NC(=O)CC2c1cccc(O)c1 (stereo not shown)	-49.79	-2.66
CC(C)Oc1ncccc1CNC(=O)N1CCC1c1ccccc1 (stereo not shown)	-	-7.097
COc1ncc(NS(=O)(=O)c2ccc(F)cc2F)cn1	7.926	15.2
Cc1cc(-c2nn3c(C4CCC4)nnc3s2)on1	-2.445	4.566
CCn1cnnc1CNC(=O)N1CCN(c2ccccc2Cl)CC1	-11.77	-16.85

The last 5 entries again:

Compound,A,B
CC(C)(C)n1ncc2c1NC(=O)CC2c1cccc(O)c1 (stereo not shown),-49.79,-2.66
CC(C)Oc1ncccc1CNC(=O)N1CCC1c1ccccc1 (stereo not shown),-,-7.097
COc1ncc(NS(=O)(=O)c2ccc(F)cc2F)cn1,7.926,15.2
Cc1cc(-c2nn3c(C4CCC4)nnc3s2)on1,-2.445,4.566
CCn1cnnc1CNC(=O)N1CCN(c2ccccc2Cl)CC1,-11.77,-16.85